{"source": "PubChem BioAssay AID1508588, Peter MacCallum Cancer Centre, 2020", "screen": "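Genome-wide search for knock-downs that heighten vemurafenib action in melanoma cells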 (primary screen)", "cell system": "human WM266.4 melanoma cells (BRAF V600 mutant)", "knock-down reagent": "siRNA pool against human genes, 40 nM", "timing": "96 h from transfection to read-out", "treatment": "vemurafenib 300 nM (about IC25), added 48 h after transfection, for 48 h; comparison arm got DMSO vehicle only", "measurement": "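Ratios to non-targeting siRNA for cell gain, counted as DAPI nuclei after minus before drug and averaged over two replicates, and for absorbance-read medium lactate per cell; both binned into fold-change classes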", "scale": "cell gain with vemurafenib: higher = more cell gain than with non-targeting siRNA; lactate per cell with vemurafenib: higher = more lactate made per cell", "hit rule": "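Enhancement is called by pairing each knock-down's vehicle-arm and drug-arm fold-change classes for viability or glycolysis; which class combinations qualify is not given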", "calls": "active = enhances vemurafenib effect; inactive = no enhancement seen", "note": "In all, the deposit lists about 18,000 reagents; below is a random part of them. 790 of all reagents (4.4%) count as active. 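Calls rest on a combination of fold-change classes in drug and vehicle arms, not all shown here.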 No sequences are given here."}
{"target": "POLR2F", "cell gain with vemurafenib": 0.02, "lactate per cell with vemurafenib": 1.66, "call": "inactive"}
{"target": "SERTAD1", "cell gain with vemurafenib": 0.59, "lactate per cell with vemurafenib": 1.62, "call": "inactive"}
{"target": "LDHA", "cell gain with vemurafenib": 0.65, "lactate per cell with vemurafenib": 0.88, "call": "inactive"}
{"target": "C1orf50", "cell gain with vemurafenib": 0.06, "lactate per cell with vemurafenib": 2, "call": "inactive"}
{"target": "AP3S1", "cell gain with vemurafenib": 0.42, "lactate per cell with vemurafenib": 0.88, "call": "inactive"}
{"target": "ARPC3", "cell gain with vemurafenib": 0.94, "lactate per cell with vemurafenib": 0.79, "call": "inactive"}
{"target": "SARS1", "cell gain with vemurafenib": 0.18, "lactate per cell with vemurafenib": 0.62, "call": "inactive"}
{"target": "SPACA3", "cell gain with vemurafenib": 0.51, "lactate per cell with vemurafenib": 1.32, "call": "inactive"}
{"target": "KAZN", "cell gain with vemurafenib": 0.75, "lactate per cell with vemurafenib": 0.74, "call": "inactive"}
{"target": "HSPA6", "cell gain with vemurafenib": 0.52, "lactate per cell with vemurafenib": 0.8, "call": "inactive"}
{"target": "NAPSA", "cell gain with vemurafenib": 0.67, "lactate per cell with vemurafenib": 1.03, "call": "inactive"}
{"target": "SCRN3", "cell gain with vemurafenib": 0.93, "lactate per cell with vemurafenib": 0.62, "call": "inactive"}
{"target": "SOBP", "cell gain with vemurafenib": 0.55, "lactate per cell with vemurafenib": 1.05, "call": "inactive"}
{"target": "PCSK2", "cell gain with vemurafenib": -0.15, "lactate per cell with vemurafenib": 3.98, "call": "inactive"}
{"target": "H2AC4", "cell gain with vemurafenib": 0.58, "lactate per cell with vemurafenib": 0.66, "call": "inactive"}
{"target": "NCK2", "cell gain with vemurafenib": 0.67, "lactate per cell with vemurafenib": 0.98, "call": "inactive"}
{"target": "VPREB3", "cell gain with vemurafenib": 0.23, "lactate per cell with vemurafenib": 2.28, "call": "inactive"}
{"target": "RBFOX1", "cell gain with vemurafenib": 1, "lactate per cell with vemurafenib": 0.78, "call": "inactive"}
{"target": "LY6G5C", "cell gain with vemurafenib": 0.94, "lactate per cell with vemurafenib": 0.61, "call": "inactive"}
{"target": "KCNJ14", "cell gain with vemurafenib": 0.66, "lactate per cell with vemurafenib": 2.37, "call": "inactive"}

A run of entries taken from the entries so far, as a working copy:
{"target": "SCRN3", "cell gain with vemurafenib": 0.93, "lactate per cell with vemurafenib": 0.62, "call": "inactive"}
{"target": "SOBP", "cell gain with vemurafenib": 0.55, "lactate per cell with vemurafenib": 1.05, "call": "inactive"}
{"target": "PCSK2", "cell gain with vemurafenib": -0.15, "lactate per cell with vemurafenib": 3.98, "call": "inactive"}

More reagents follow.
{"target": "ITGB3", "cell gain with vemurafenib": 0.5, "lactate per cell with vemurafenib": 0.62, "call": "inactive"}
{"target": "ATP8B3", "cell gain with vemurafenib": 0.48, "lactate per cell with vemurafenib": 1.01, "call": "inactive"}
{"target": "UROC1", "cell gain with vemurafenib": 0.57, "lactate per cell with vemurafenib": 1.31, "call": "inactive"}
{"target": "FOLR2", "cell gain with vemurafenib": 0.34, "lactate per cell with vemurafenib": 0.74, "call": "inactive"}
{"target": "OR10A3", "cell gain with vemurafenib": 0.2, "lactate per cell with vemurafenib": 1.28, "call": "inactive"}
{"target": "UTP11", "cell gain with vemurafenib": 0.21, "lactate per cell with vemurafenib": 1.55, "call": "inactive"}
{"target": "CYP26A1", "cell gain with vemurafenib": 0.76, "lactate per cell with vemurafenib": 1.2, "call": "inactive"}
{"target": "TAFA5", "cell gain with vemurafenib": 0.68, "lactate per cell with vemurafenib": 0.51, "call": "inactive"}
{"target": "NEDD8", "cell gain with vemurafenib": 0.59, "lactate per cell with vemurafenib": 1.55, "call": "inactive"}
{"target": "DCAF4", "cell gain with vemurafenib": 0.01, "lactate per cell with vemurafenib": 1.1, "call": "inactive"}
{"target": "MSR1", "cell gain with vemurafenib": 0.85, "lactate per cell with vemurafenib": 1.28, "call": "inactive"}
{"target": "H2AC25", "cell gain with vemurafenib": 0.35, "lactate per cell with vemurafenib": 0.84, "call": "inactive"}
{"target": "MAGI3", "cell gain with vemurafenib": 0.93, "lactate per cell with vemurafenib": 0.78, "call": "inactive"}
{"target": "ITPRID1", "cell gain with vemurafenib": 0.45, "lactate per cell with vemurafenib": 1, "call": "inactive"}
{"target": "CHDH", "cell gain with vemurafenib": 0.88, "lactate per cell with vemurafenib": 0.7, "call": "inactive"}
{"target": "MZT2A", "cell gain with vemurafenib": 0.58, "lactate per cell with vemurafenib": 1.19, "call": "inactive"}
{"target": "SPAG4", "cell gain with vemurafenib": 0.94, "lactate per cell with vemurafenib": 0.87, "call": "inactive"}
{"target": "LSM12", "cell gain with vemurafenib": 0.33, "lactate per cell with vemurafenib": 0.61, "call": "inactive"}
{"target": "PRPS1", "cell gain with vemurafenib": 1.18, "lactate per cell with vemurafenib": 0.51, "call": "inactive"}
{"target": "RETN", "cell gain with vemurafenib": 0.12, "lactate per cell with vemurafenib": 1.56, "call": "inactive"}
